Laboratory results as given in patent US7893271B2, “Benzimidazole carbamates and (thio) carbamates, and the synthesis and use thereof” (Intervet International B.V., priority 2005, dated 2011).
Some results were stated once for a whole list of compounds, not compound by compound.

Experiment: solubility in water of compounds of the invention

Q: With “4-fluorobenzenesulfonic acid 2-methoxycarbonylamino-1-phosphonooxymethyl-1(H)-benzoimidazol-5- and 6-yl esters” as the substance, how does the solubility in water read?
A: at least 50 mM
